In PMC9976904:
No constants are given. Whether binding was seen depends on the method and setting. In cells and extracts the contact can be indirect. Some entries that bind do so weakly or less than the wild type.

Protein sequences, listed by entry. Tags and fused reporters are not part of them. Lines headed by an entry give the natural chain unless they say otherwise; changes in a name come on top. Chains listed by the source or under a name are the forms on record and can include a tag or linker.
UniProt P60842: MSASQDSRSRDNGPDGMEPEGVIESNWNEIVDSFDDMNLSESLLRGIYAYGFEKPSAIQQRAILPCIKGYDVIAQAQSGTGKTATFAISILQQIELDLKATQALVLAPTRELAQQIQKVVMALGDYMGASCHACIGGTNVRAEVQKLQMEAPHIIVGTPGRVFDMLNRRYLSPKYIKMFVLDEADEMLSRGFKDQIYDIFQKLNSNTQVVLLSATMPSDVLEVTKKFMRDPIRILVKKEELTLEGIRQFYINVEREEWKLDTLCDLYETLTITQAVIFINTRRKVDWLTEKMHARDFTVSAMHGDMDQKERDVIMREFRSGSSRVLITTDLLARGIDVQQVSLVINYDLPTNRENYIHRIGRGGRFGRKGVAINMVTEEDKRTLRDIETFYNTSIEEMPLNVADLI
mCitrine-eIF4A1^DQAD (FRET acceptor) (P60842, form named): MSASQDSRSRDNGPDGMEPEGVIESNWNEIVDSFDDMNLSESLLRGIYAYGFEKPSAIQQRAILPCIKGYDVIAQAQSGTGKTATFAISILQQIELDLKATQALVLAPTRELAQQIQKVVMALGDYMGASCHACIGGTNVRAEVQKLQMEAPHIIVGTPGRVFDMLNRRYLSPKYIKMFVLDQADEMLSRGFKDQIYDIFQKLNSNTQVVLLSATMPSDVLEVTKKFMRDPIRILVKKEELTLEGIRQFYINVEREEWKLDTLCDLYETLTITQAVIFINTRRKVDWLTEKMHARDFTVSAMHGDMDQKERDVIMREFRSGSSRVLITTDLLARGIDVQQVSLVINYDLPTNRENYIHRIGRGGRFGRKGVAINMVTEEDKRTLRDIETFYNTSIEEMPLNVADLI

Molecular target: mTurquoise-eIF4A1 wild-type (FRET donor) (human) (UniProt P60842)
Experiment: FRET or BRET; FLIM-FRET in live HeLa cells 48 h after co-transfection of mTurquoise- (donor) and mCitrine- (acceptor) tagged eIF4A1; donor lifetime, frequency domain, excitation 436 nm

Q: “mCitrine-eIF4A1^DQAD (FRET acceptor) (from UniProt P60842 1-406) (enzyme)” was tested. Which binding did it give?
A: Its binding is “binds”.
